Results: US9528155B2, “In vitro method for determining immunotoxicity of a compound” (UNIVERSITEIT MAASTRICHT, priority 2012, dated 2016)

What was measured:
Type in all cases: cell-based, human
Details in all cases: 6 h exposure at sub-cytotoxic exposure conc. of Tables 1/2, vs vehicle control, N=3, below -1.0 = underexpression
[1] = tested on: CHAC1; assay: Fluidigm multiplex real-time quantitative PCR of marker gene CHAC1 in exposed Jurkat cells
[2] = tested on: CRIM1; assay: Fluidigm multiplex real-time quantitative PCR of marker gene CRIM1 in exposed Jurkat cells
[3] = tested on: HMGCS1; assay: Fluidigm multiplex real-time quantitative PCR of marker gene HMGCS1 in exposed Jurkat cells

NS(=O)(=O)c1cc(C(=O)O)c(NCc2ccco2)cc1Cl [FURO, furosemide]
Expression levels of marker genes upon exposure: CHAC1 (Fold Change) [1]: 1.6 ± 1.6
Expression levels of marker genes upon exposure: CRIM1 (Fold Change) [2]: 1.4 ± 0.5
Expression levels of marker genes upon exposure: HMGCS1 (Fold Change) [3]: 1.1 ± 0.2
